In all, about 580,000 compounds went through this assay and about 6,100 (1.1%) were called active. About 15% were inconclusive and are not listed. Calls come from the whole dose curve; as a rule, active = well fitted inhibition curve with a large enough effect; inconclusive = small, poorly fitted or top-dose-only effect, or another doubt; inactive = no such curve, though single readings can be large or run the other way. The entries are a selection whose mix differs from that of the whole data set. The source gives no active or inactive call for entries shown without one.
% is set by controls: 0 for no effect and ±100 for the full control effect; potency is the fitted concentration of half-maximal effect.

Protein sequences, listed by entry. Tags and fused reporters are not part of them. Lines headed by an entry give the natural chain unless they say otherwise; changes in a name come on top.
UniProt P18054: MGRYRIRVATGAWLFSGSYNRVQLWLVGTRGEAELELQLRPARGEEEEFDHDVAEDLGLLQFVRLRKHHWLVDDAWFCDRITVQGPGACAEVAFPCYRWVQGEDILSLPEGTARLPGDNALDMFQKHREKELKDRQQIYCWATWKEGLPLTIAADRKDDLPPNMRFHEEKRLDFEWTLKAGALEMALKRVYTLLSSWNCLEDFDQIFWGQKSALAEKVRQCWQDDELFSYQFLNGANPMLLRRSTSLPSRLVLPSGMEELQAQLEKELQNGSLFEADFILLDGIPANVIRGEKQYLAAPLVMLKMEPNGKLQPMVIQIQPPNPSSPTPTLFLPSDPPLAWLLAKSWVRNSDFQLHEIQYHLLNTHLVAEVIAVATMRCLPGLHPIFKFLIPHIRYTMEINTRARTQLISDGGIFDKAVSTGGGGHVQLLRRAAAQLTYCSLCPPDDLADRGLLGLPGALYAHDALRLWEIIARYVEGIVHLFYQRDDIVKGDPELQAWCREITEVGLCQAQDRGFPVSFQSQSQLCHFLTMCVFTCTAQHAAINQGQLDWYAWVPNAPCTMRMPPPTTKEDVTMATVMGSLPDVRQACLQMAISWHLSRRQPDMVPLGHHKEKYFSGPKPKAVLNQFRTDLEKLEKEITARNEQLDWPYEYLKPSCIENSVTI

This test concerns the target Polyunsaturated fatty acid lipoxygenase ALOX12 (Homo sapiens) (UniProt P18054). In words: Primary qHTS assay for inhibitors of human arachidonate 12S-lipoxygenase (ALOX12): Round 2. Conditions: purified 12hLO, xylenol orange hydroperoxide absorbance; activity change, negative = inhibition: at 0.00344 µM (top of the series) unless noted. The method in brief:
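Purified human 12hLO (150 nM final) in 25 mM Hepes, 0.01% Triton X-100, pH 7.0 was preincubated 15 min at room temperature with compound. Then 40 uM arachidonic acid was added, 30 min. Hydroperoxide was read by Fe-XO absorbance ratio 573/405 nm.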
On to `CC12CCC(CC1)C(C)(C)O2`, for which the activity change, negative = inhibition was -36.5%.
`CC(=O)Nc1ncc([N+](=O)[O-])s1`: the activity change, negative = inhibition was -4.85%.
The same measure, in the same setting: as for `O=C(O)COC(=O)Cc1ccccc1Nc1c(Cl)cccc1Cl`, the figure is -6.88%.
Consider `O=c1[nH]c(NNC(=S)NCc2ccccc2)nc2c1C1(CCCCC1)Cc1ccccc1-2`, for which the Potency is active: 35.5 µM.
Turning to `OC1(c2ccc(Cl)c(C(F)(F)F)c2)CCN(CCCC(c2ccc(F)cc2)c2ccc(F)cc2)CC1`, the activity change, negative = inhibition was -11.3%.
As to `CC1CCCC(NC(=S)NC(=O)c2ccco2)C1C` (stereo unspecified), the Potency was active: 31.6 µM.
For `O=C(NC(=S)Nc1cccc(O)c1)C12CC3CC(CC(C3)C1)C2`, the Potency is active: 22.4 µM.
In the case of `CC1(C)O[C@@H]2C[C@H]3[C@@H]4CCC5=CC(=O)C=C[C@]5(C)[C@@]4(F)[C@@H](O)C[C@]3(C)[C@]2(C(=O)CO)O1`, the activity change, negative = inhibition is 23.4%.
Regarding `O=C(O)c1ccc(-n2cccc2/C=N\NC(=O)c2cc3cc(Br)ccc3o2)cc1`, the Potency is active: 35.5 µM.
Take `Cc1cnc(NC(=O)C2=C(O)c3ccccc3S(=O)(=O)N2C)s1`: the activity change, negative = inhibition worked out at 46.3%.
As for `O=C(O)CCCc1ccccc1`, the activity change, negative = inhibition was 16.9%.
Regarding `COc1cc(/C=C(/C#N)C(=O)c2c(Cl)cccc2Cl)cc(OC)c1`, the Potency is active: 28.2 µM.
With `C1CCN2C[C@@H]3C[C@@H](CN4CCCC[C@@H]34)[C@H]2C1`, the activity change, negative = inhibition is 20.2%.
With `Brc1ccc2nc(-c3ccco3)c(CC3CCCCC3)n2c1`, the Potency is active: 15.8 µM.
Regarding `CCN1CCC[C@H]1CNC(=O)c1c(OC)ccc(Br)c1OC`, the activity change, negative = inhibition was found to be 28.2%.
For `CCCCCNC(=O)C(C1CC1)n1c(=O)c(-c2ccco2)nc2ccccc21` (stereo unspecified), the Potency is active: 35.5 µM.
Regarding `Oc1ccc(OCc2ccccc2)cc1`, the activity change, negative = inhibition was found to be 15.8%.
As for `CO[C@@]12[C@H](COC(N)=O)C3=C(C(=O)C(C)=C(N)C3=O)N1C[C@@H]1N[C@@H]12`, the activity change, negative = inhibition stood at 9.48%.
`Cc1ccc(Cl)c(Nc2ccccc2C(=O)O)c1Cl`: the activity change, negative = inhibition was 51.8%.
Take `CCN1CCN(C(=O)N[C@@H](C(=O)N[C@@H]2C(=O)N3C(C(=O)O)=C(CSc4nnnn4C)CS[C@H]23)c2ccc(O)cc2)C(=O)C1=O`: the activity change, negative = inhibition stood at 12.6%.
Turning to `COCCOC(=O)C1=C(C)NC(C)=C(C(=O)OC/C=C/c2ccccc2)C1c1cccc([N+](=O)[O-])c1` (stereo unspecified), the activity change, negative = inhibition worked out at 26.3%.
On to `O=S1(=O)OC(c2ccc(O)cc2)(c2ccc(O)cc2)c2ccccc21`, for which the activity change, negative = inhibition was -3.7%.
As to `CCCCNc1ccc(C(=O)OCCOCCOCCOCCOCCOCCOCCOCCOCCOC)cc1`, the activity change, negative = inhibition was -26%.
Still for that read-out and setting: as for `COc1cc2c(cc1OC)CN(C(=O)[C@H](C)N[C@@H](CCc1ccccc1)C(=O)O)[C@H](C(=O)O)C2`, the figure is -37.9%; as for `O=C(O)C(S)C(S)C(=O)O` (stereo unspecified), 53%; as for `CCC1=C(C)CN(C(=O)NCCc2ccc(S(=O)(=O)NC(=O)NC3CCC(C)CC3)cc2)C1=O` (stereo unspecified), -27.7%.
On to `O=C(O)/C=C/c1ccc(Cn2ccnc2)cc1`, for which the activity change, negative = inhibition was 12.7%.
As to `Cc1cc(C(C)(C)C)c(O)c(C(C)(C)C)c1`, the activity change, negative = inhibition was 8.25%.
`CSc1ccc(CNc2ncc(-c3cccc([N+](=O)[O-])c3)n2C)cc1`: the Potency was active: 0.708 µM.
With `CN/C(=C\[N+](=O)[O-])NCCSCc1ccc(CN(C)C)o1`, the activity change, negative = inhibition is 11.2%.
In the case of `CCOc1ccc(NS(=O)(=O)c2ccc(N)cc2)nn1`, the activity change, negative = inhibition is 23.9%.
As for `O=c1cc(CO)occ1O`, the activity change, negative = inhibition came out at 18.1%.
With `CNC(=S)N/N=C/c1ccc(SC)cc1`, the Potency was active: 14.1 µM.
Regarding `NC1CCN(c2cccc(Cl)n2)CC1`, the activity change, negative = inhibition came to 46.4%.
On the same count and under the same terms, as for `O=C(O)CCNC(=O)c1ccc(N=Nc2ccc(O)c(C(=O)O)c2)cc1`, the figure is -2.42%; as for `CCCN1CCCC[C@H]1C(=O)Nc1c(C)cccc1C`, -34.4%; as for `COc1cc(NCc2ccc3nc(N)nc(N)c3c2C)cc(OC)c1OC`, 2.34%.
On the same count and under the same terms, as for `CC(=O)Nc1ccc(OC(=O)c2ccccc2OC(C)=O)cc1`, the figure is 17.6%.
Take `COc1ccc(C)cc1Nc1nc(C)nc2c1oc1ccccc12`: the Potency is active: 35.5 µM.
On to `CC(=O)NC(=O)c1ccccc1O`, for which the activity change, negative = inhibition was determined as 3.85%.
In the case of `CN1CC(=O)N2[C@H](c3ccc4c(c3)OCO4)c3[nH]c4ccccc4c3C[C@@H]2C1=O`, the activity change, negative = inhibition came to 15.1%.
As for `CCCCCCCCCCCCOCCOCCOCCOCCOCCOCCOCCOCCOCCO`, the activity change, negative = inhibition came out at 15.1%.
`Cc1c(C(=O)NN2CCCCC2)nn(-c2ccc(Cl)cc2Cl)c1-c1ccc(Cl)cc1`: the activity change, negative = inhibition is -11.9%.
For the compound `C[C@](N)(Cc1ccc(O)c(O)c1)C(=O)O`, the activity change, negative = inhibition is -5.74%.
`Cc1cc(C)c(CN2CCC3(Cc4ccccc4CNC3=O)C2)c(C)c1` (stereo unspecified): the Potency is active: 1 µM.
As for `CCOC(=O)O[C@]1(C(=O)OCCl)CC[C@H]2[C@@H]3CCC4=CC(=O)C=C[C@]4(C)[C@H]3[C@@H](O)C[C@@]21C`, the activity change, negative = inhibition stood at 32.2%.
As for `COc1cc2c(Nc3ccc(Br)cc3F)ncnc2cc1OCC1CCN(C)CC1`, the activity change, negative = inhibition is -2.93%.
Consider `NS(=O)(=O)c1cc2c(cc1Cl)NC(C(Cl)Cl)NS2(=O)=O` (stereo unspecified), for which the activity change, negative = inhibition amounted to 10.8%.
For `CCC(=O)Nc1ccc(O)cc1`, the activity change, negative = inhibition was -14.9%.
The same measure, in the same setting: as for `CN[C@@H]1[C@H](O)[C@H](NC)[C@H]2O[C@@]3(O)C(=O)C[C@@H](C)O[C@H]3O[C@@H]2[C@H]1O`, the figure is -55.4%.
Consider `CC(C)Nc1cccnc1N1CCN(C(=O)c2cc3cc(NS(C)(=O)=O)ccc3[nH]2)CC1`, for which the activity change, negative = inhibition was -34.2%.

The values are drawn from PubChem BioAssay AID1671190 (National Center for Advancing Translational Sciences (NCATS), 2021).
